Source: paper PMC3824243
No constants are given. Whether binding was seen depends on the method and setting. Some binding calls cover weakened binding; strength is not graded here. Sequences can lack the tags named with a protein.

Amino acid sequences for entries named in this document (tags omitted).
UniProt Q04LY0: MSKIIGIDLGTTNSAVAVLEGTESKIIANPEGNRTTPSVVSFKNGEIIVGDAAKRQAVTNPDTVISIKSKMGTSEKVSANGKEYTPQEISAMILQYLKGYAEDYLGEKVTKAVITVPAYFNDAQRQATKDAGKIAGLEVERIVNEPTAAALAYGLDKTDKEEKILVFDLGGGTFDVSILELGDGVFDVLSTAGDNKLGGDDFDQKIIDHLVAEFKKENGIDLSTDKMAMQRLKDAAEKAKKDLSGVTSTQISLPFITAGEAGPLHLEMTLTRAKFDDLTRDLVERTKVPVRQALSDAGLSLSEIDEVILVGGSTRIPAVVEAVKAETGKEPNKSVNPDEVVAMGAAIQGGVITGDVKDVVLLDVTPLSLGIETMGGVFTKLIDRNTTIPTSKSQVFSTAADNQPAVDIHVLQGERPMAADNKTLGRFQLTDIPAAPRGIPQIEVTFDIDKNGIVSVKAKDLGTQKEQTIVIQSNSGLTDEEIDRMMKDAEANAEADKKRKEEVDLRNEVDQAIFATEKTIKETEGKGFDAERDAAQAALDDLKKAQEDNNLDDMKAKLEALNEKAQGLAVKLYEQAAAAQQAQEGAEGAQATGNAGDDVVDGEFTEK

T1: DnaJ fused to the full-length bacteriophage λ repressor protein (pBT-dnaJ) (Streptococcus pneumoniae D39) (UniProt P95830)
T1 sequence: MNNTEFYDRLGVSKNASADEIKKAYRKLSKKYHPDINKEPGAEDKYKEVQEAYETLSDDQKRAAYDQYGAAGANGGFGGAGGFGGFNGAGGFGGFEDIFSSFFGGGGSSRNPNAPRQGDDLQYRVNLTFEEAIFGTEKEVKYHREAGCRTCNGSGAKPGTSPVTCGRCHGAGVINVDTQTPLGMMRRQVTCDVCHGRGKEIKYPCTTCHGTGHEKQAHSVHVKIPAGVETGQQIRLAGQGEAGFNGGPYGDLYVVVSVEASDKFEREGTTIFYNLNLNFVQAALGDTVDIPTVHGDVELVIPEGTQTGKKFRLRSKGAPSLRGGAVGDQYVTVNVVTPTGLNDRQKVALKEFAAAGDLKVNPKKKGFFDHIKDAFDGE

B1: SpxB fused to the N-terminal domain of the α-subunit of RNA polymerase (pTRG-spxB) (enzyme, UniProt Q54970 1-591)
chain: MTQGKITASAAMLNVLKTWGVDTIYGIPSGTLSSLMDALAEDKDIRFLQVRHEETGALAAVMQAKFGGSIGVAVGSGGPGATHLINGVYDAAMDNTPFLAILGSRPVNELNMDAFQELNQNPMYNGIAVYNKRVAYAEQLPKVIDEACRAAVSKKGPAVVEIPVNFGFQEIDENSYYGSGSYERSFIAPALNEVEIDKAVEILNNAERPVIYAGFGGVKAGEVITELSRKIKAPIITTGKNFEAFEWNYEGLTGSAYRVGWKPANEVVFEADTVLFLGSNFPFAEVYEAFKNTEKFIQVDIDPYKLGKRHALDASILGDAGQAAKAILDKVNPVESTPWWRANVKNNQNWRDYMNKLEGKTEGELQLYQVYNAINKHADQDAIYSIDVGNTTQTSTRHLHMTPKNMWRTSPLFATMGIALPGGIAAKKDNPDRQVWNIMGDGAFNMCYPDVITNVQYDLPVINLVFSNAEYGFIKNKYEDTNKHLFGVDFTNADYAKIAEAQGAVGFTVDRIEDIDAVVAEAVKLNKEGKTVVIDARITQHRPLPVEVLELDPKLHSEEAIKAFKEKYEAEELVPFRLFLEEEGLQSRAIK

Biological target: T1, DnaJ fused to the full-length bacteriophage λ repressor protein (pBT-dnaJ) (Streptococcus pneumoniae D39)
Experiment: two-hybrid; bacterial two-hybrid in E. coli XL1-Blue MRF' Kan: DnaJ on λcI (pBT), partner on the RNA polymerase α-subunit N-terminal domain (pTRG); HIS3 and aadA reporters; selective plates with 5 mM 3-AT, dual selective plates with 5 mM 3-AT and 12.5 μg/ml streptomycin, 37 °C

Molecule | binding
DnaK fused to the N-terminal domain of the α-subunit of RNA polymerase (pTRG-dnaK) (from UniProt Q04LY0 1-607) | binds
B1 | binds
